PubChem BioAssay AID1259254 | NCATS | 2017

Assay: 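Finding genes that stop cells copying their DNA twice in one cycle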 (primary screen)
Cell system: human HCT116 colorectal cancer cells
Reagents: single siRNA against human genes
Timing: 3 days
Detection: 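Imaged Hoechst DNA stain sorts each cell into a cycle phase by DNA amount; per plate, G2 fraction set to 0% for non-targeting and 100% for GMNN siRNA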
Reading the numbers: G2 robust z-score and G2 cells, % of GMNN control: higher = more G2 cells, more excess DNA replication
Call rule: 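An siRNA counts as active if its G2 robust z-score lies at least 5 MADs above the screen median; here such calls match roughly 38% of GMNN control or more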
Shown is an unselected part of about 59,000 reagents tested. About 1,550 of them (2.6%) count as active. 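G2 share is only a proxy for re-replication; each gene was hit by three separate siRNAs, and active genes were retested.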 Entries without a mark were called inactive. Reagents against one gene are numbered here. Further read-outs or replicates are left out here. No sequences are given here. Not given: the amount of reagent.

For BST1 #1, the values are G2 robust z-score -0.157; G2 cells, % of GMNN control 1.86. Silencing of BST1 #2 gave: G2 robust z-score 3.74; G2 cells, % of GMNN control 29.3. BST1 #3 gave G2 robust z-score -1.38; G2 cells, % of GMNN control -6.78. Against NYX #1 the deposit lists G2 robust z-score -1.3; G2 cells, % of GMNN control -6.21. Against NYX #2, the values are G2 robust z-score -0.486; G2 cells, % of GMNN control -0.455. Depletion of NYX #3 resulted in: G2 robust z-score -0.98; G2 cells, % of GMNN control -3.93.

After knock-down of ARHGAP42 #1, the record shows G2 robust z-score -0.717; G2 cells, % of GMNN control -2.07. Depletion of ARHGAP42 #2 came out at: G2 robust z-score 2.02; G2 cells, % of GMNN control 17.2. Against ARHGAP42 #3, the values are G2 robust z-score -0.0599; G2 cells, % of GMNN control 2.55. After knock-down of ARHGAP42 #4, the record shows G2 robust z-score 0.349; G2 cells, % of GMNN control 5.42. Depletion of ARHGAP42 #5 resulted in: G2 robust z-score -0.534; G2 cells, % of GMNN control -0.786. Silencing of ARHGAP42 #6 gave: G2 robust z-score 2.63; G2 cells, % of GMNN control 21.5.

3 entries from above in another layout:
gene knocked down	reagent no.	G2 robust z-score	G2 cells, % of GMNN control
BST1	1	-0.157	1.86
BST1	2	3.74	29.3
BST1	3	-1.38	-6.78

Continued:
Silencing of RPL23AP25 #1 resulted in: G2 robust z-score 0.164; G2 cells, % of GMNN control 4.12. Knock-down of RPL23AP25 #2 resulted in: G2 robust z-score -0.241; G2 cells, % of GMNN control 1.27. RPL23AP25 #3 scored G2 robust z-score 4.81; G2 cells, % of GMNN control 36.8. NT5C1B #1 gave G2 robust z-score 0.141; G2 cells, % of GMNN control 3.96. For NT5C1B #2, the values are G2 robust z-score -0.665; G2 cells, % of GMNN control -1.71. NT5C1B #3 showed G2 robust z-score -0.438; G2 cells, % of GMNN control -0.114.
